This note sets out measurements from article PMC6090974.

Among the targets are Flag-TRPS1-C(2941–3885); Flag-TRPS1-ΔC(1–2940); Flag-TRPS1-N(1–2640); Flag-TRPS1-ΔN(2641–3885).
Assay in all cases: co-IP; HEK293T with ectopic overexpression of Flag-TRPS1 or its truncation mutants (N, ΔC, C, ΔN, GATA); blots for HDAC2 and USP4
In experiment [1] the target is Flag-TRPS1-GATA(2641–2940).

Results are given in words; binding and its absence hold for the method and conditions named. In cells and extracts the contact can be indirect. For some assays here: Binding can be weak; no strength is given.

B1: USP4 in HEK293T cells of the TRPS1 truncation co-IP (enzyme, UniProt Q13107 1-963)
chain: MAEGGGCRERPDAETQKSELGPLMRTTLQRGAQWYLIDSRWFKQWKKYVGFDSWDMYNVGEHNLFPGPIDNSGLFSDPESQTLKEHLIDELDYVLVPTEAWNKLLNWYGCVEGQQPIVRKVVEHGLFVKHCKVEVYLLELKLCENSDPTNVLSCHFSKADTIATIEKEMRKLFNIPAERETRLWNKYMSNTYEQLSKLDNTVQDAGLYQGQVLVIEPQNEDGTWPRQTLQSKSSTAPSRNFTTSPKSSASPYSSVSASLIANGDSTSTCGMHSSGVSRGGSGFSASYNCQEPPSSHIQPGLCGLGNLGNTCFMNSALQCLSNTAPLTDYFLKDEYEAEINRDNPLGMKGEIAEAYAELIKQMWSGRDAHVAPRMFKTQVGRFAPQFSGYQQQDSQELLAFLLDGLHEDLNRVKKKPYLELKDANGRPDAVVAKEAWENHRLRNDSVIVDTFHGLFKSTLVCPECAKVSVTFDPFCYLTLPLPLKKDRVMEVFLVPADPHCRPTQYRVTVPLMGAVSDLCEALSRLSGIAAENMVVADVYNHRFHKIFQMDEGLNHIMPRDDIFVYEVCSTSVDGSECVTLPVYFRERKSRPSSTSSASALYGQPLLLSVPKHKLTLESLYQAVCDRISRYVKQPLPDEFGSSPLEPGACNGSRNSCEGEDEEEMEHQEEGKEQLSETEGSGEDEPGNDPSETTQKKIKGQPCPKRLFTFSLVNSYGTADINSLAADGKLLKLNSRSTLAMDWDSETRRLYYDEQESEAYEKHVSMLQPQKKKKTTVALRDCIELFTTMETLGEHDPWYCPNCKKHQQATKKFDLWSLPKILVVHLKRFSYNRYWRDKLDTVVEFPIRGLNMSEFVCNLSARPYVYDLIAVSNHYGAMGVGHYTAYAKNKLNGKWYYFDDSNVSLASEDQIVTKAAYVLFYQRRDDEFYKTPSLSSSGSSDGGTRPSSSQQGFGDDEACSMDTN
Turning to B1, the binding entry in the experiment with Flag-TRPS1-C(2941–3885) is given as “no binding”; in the experiment with Flag-TRPS1-ΔC(1–2940) it was “binds”; in experiment [1], “no binding”; in the experiment with Flag-TRPS1-N(1–2640), “no binding”; in the experiment with Flag-TRPS1-ΔN(2641–3885), “binds”.
